Experimental data from patent US20230357857.
Weaker means in comparison with the reference protein, sequence or condition of that experiment. For at least one entry, the source does not settle the construct or the ends of the probe.

Protein sequences, listed by entry. Tags and fused reporters are not part of them.
UniProt P19821, whole entry: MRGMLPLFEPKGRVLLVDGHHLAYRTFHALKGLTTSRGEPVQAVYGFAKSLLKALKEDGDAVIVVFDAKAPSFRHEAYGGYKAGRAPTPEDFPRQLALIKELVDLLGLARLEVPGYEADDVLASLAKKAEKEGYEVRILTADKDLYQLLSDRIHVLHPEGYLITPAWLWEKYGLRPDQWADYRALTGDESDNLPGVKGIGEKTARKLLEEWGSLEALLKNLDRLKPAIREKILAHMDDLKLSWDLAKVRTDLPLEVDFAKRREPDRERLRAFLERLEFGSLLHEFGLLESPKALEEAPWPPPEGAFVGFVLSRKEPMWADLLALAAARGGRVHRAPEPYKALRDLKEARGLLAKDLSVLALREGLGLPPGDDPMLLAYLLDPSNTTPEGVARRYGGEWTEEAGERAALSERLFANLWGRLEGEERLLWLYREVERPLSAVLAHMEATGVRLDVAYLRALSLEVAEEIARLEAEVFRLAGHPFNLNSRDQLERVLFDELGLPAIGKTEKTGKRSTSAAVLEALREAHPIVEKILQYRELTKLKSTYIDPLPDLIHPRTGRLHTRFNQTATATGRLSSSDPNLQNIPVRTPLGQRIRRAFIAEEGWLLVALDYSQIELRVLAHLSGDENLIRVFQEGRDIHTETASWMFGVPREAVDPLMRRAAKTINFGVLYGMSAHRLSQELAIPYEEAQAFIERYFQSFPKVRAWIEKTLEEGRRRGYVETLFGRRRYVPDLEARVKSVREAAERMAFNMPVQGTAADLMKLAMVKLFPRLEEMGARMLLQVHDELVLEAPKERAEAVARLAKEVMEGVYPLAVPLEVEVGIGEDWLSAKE

Biological target: Taq DNA polymerase (UniProt P19821)
Experiment: inhibition of the protein
Conditions: purified recombinant protein, protein details: Promega, dose not given here
[1] = much lower signal with single-base mismatch targets than with matched target
[2] = 18 bp duplex needed without stabilizer

Sequence: GTTGCGCAGCCTGACACGACCAATGTACAGTATTGGTCGTGTC / AGGCTGCGCAACTGTTGG [High Tm Aptamer + target-specific strand]
- functional effect of the aptamer (fully stable even at 35 C): active

Sequence: GTTGCGCAGCCTACGCCAATGTACAGTATTGGCGT / AGGCTGCGCAACTGTTGG
- functional effect of the aptamer (activated by short and long targets): active

Sequence: GTTGCGCAGCCTCAATGTACAGTATTG / AGGCTGCGCAACTGTTGG
- functional effect of the aptamer (unstable, cannot fully silence enzyme, listing SEQ 1 is shorter than printed Table 1 sequence): less active

Sequence: GTTGCGCAGCCTCGACCAATGTACAGTATTGGTCG / AGGCTGCGCAACTGTTGG [Medium Tm Aptamer + target-specific strand]
- functional effect of the aptamer (more stable to increased temperature than low Tm): active

Sequence: AACAGTTGCGCAGCCTCAATGTACAGTATTG / AGGCTGCGCAACTGTTGG
- functional effect of the aptamer (enzyme released by long but not short targets): active

Sequence: TGCCTATCAGTACGCCAATGTACAGTATTGGCG / TACTGATAGGCAGTCTGC [Aptamer (long target) + long target specific strand (G)]
- functional effect of the aptamer [1]: active

Sequence: GTTGCGCAGCCTTTATCAATGTACAGTATGATAA / AGGCTGCGCAACTGTTGG [Low Tm Aptamer + target-specific strand]
- functional effect of the aptamer (stable at 20 C, quickly destabilized at higher temperature): active

Sequence: TGCCTATCAGTACGCCAATGTACAGTATTGGCG / TACTGATAGGCAGTCTGA [Aptamer (long target) + long target specific strand (T)]
- functional effect of the aptamer [1]: active

Sequence: TGCCTATCAGTACGCCAATGTACAGTATTGGCG / TACTGATAGGCAGTCTGT [Aptamer (long target) + long target specific strand (A)]
- functional effect of the aptamer [1]: active

Sequence: AGTAGATTGAATCGCCAATGTACAGTATTGGCG / ATTCAATCTACTGCCTCA [Aptamer (short target) + short target specific strand (G)]
- functional effect of the aptamer [1]: active

Sequence: GTTGCGCAGCCTCAATGTACAGTATTG / AGGCTGCGCAACTGTTGGGAAGGGCGATCGGTGCGGGCCT [Aptamer, no stabilization domain, 12 bp duplex]
- functional effect of the aptamer [2]: less active

Sequence: AGTAGATTGAATCGCCAATGTACAGTATTGGCG / ATTCAATCTACTGACTCA [Aptamer (short target) + short target specific strand (T)]
- functional effect of the aptamer [1]: active

Sequence: CAGCCTCAATGTACAGTATTG / AGGCTGCGCAACTGTTGGGAAGGGCGATCGGTGCGGGCCT [Aptamer, no stabilization domain, 6 bp duplex]
- functional effect of the aptamer [2]: less active

Sequence: TGCCTATCAGTACGCCAATGTACAGTATTGGCG / TACTGATAGGCAGTCTGG [Aptamer (long target) + long target specific strand (C)]
- functional effect of the aptamer [1]: active

Sequence: GTTGCGCAGCCTACTGGCCAATGTACAGTATTGGCCAGT / AGGCTGCGCAACTGTTGGGAAGGGCGATCGGTGCGGGCCT [Aptamer, 6 bp stabilization domain, 12 bp duplex]
- functional effect of the aptamer (stable complex with only 12 bp duplex): active

Sequence: CCAACAGTTGCGCAGCCTCAATGTACAGTATTG / AGGCTGCGCAACTGTTGGGAAGGGCGATCGGTGCGGGCCT [Aptamer, no stabilization domain, 18 bp duplex]
- functional effect of the aptamer (stable enzyme-aptamer complex): active

Sequence: AGTAGATTGAATCGCCAATGTACAGTATTGGCG / ATTCAATCTACTGGCTCA [Aptamer (short target) + short target specific strand (C)]
- functional effect of the aptamer [1]: active

Sequence: AGTAGATTGAATCGCCAATGTACAGTATTGGCG / ATTCAATCTACTGTCTCA [Aptamer (short target) + short target specific strand (A)]
- functional effect of the aptamer [1]: active
